Data from the primary screen of doi:10.1371/journal.pone.0140310, rounded.

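Human melanoma cells were exposed to two drugs together for 72 h in 1,536-well plates and read by automated microscopy after fixing and staining. The read-out is the fraction of cleaved-PARP-positive nuclei, in % of that fraction in the DMSO control; 200 means twice the control level of this apoptosis marker. Concentrations were fixed for each drug; these are the higher of two levels. These are primary screening values without error estimates. The marker varies much from line to line, for technical or biological reasons.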 An unselected part of the screen is shown. An entry leaves out what has no value listed here. A dash means that no value is listed here.

Drug key:
sunitinib: CCN(CC)CCNC(=O)c1c(C)[nH]c(/C=C2\C(=O)Nc3ccc(F)cc32)c1C at 2 µM
MK-2206: NC1(c2ccc(-c3nc4ccn5c(=O)[nH]nc5c4cc3-c3ccccc3)cc2)CCC1 at 2 µM
ruxolitinib: N#CC[C@H](C1CCCC1)n1cc(-c2ncnc3[nH]ccc23)cn1 at 5 µM
bortezomib: CC(C)C[C@H](NC(=O)[C@H](Cc1ccccc1)NC(=O)c1cnccn1)B(O)O at 0.005 µM

| Cell line | ruxolitinib + sunitinib | bortezomib + sunitinib | MK-2206 + bortezomib | sunitinib + MK-2206 | ruxolitinib + bortezomib |
|---|---|---|---|---|---|
| UACC-257 | 52.8 | 39.2 | 112 | 124 | 195 |
| MeWo | 117 | 1450 | 2330 | 22.0 | 1690 |
| A2058 | 412 | 2170 | 2480 | 242 | 1200 |
| COLO 800 | 17.4 | 36.9 | 68.7 | 80.2 | 75.3 |
| LOX IMVI | 87.0 | 289 | 196 | 142 | 348 |
| WM3526 | 212 | 1420 | 5270 | 462 | 1900 |
| SK-MEL-5 | 207 | 2940 | 3320 | 1410 | 768 |
| SK-MEL-28 | 134 | 93.1 | 317 | 113 | 660 |
| WM1745 | 211 | 338 | 714 | 219 | 577 |
| SK-MEL-30 | 77.0 | 1260 | 1330 | 229 | 590 |
| COLO 829 | 92.7 | 2470 | 3150 | 88.8 | 4400 |
| SK-MEL-2 | 249 | 225 | 327 | 114 | 218 |
| RPMI-7951 | 251 | 326 | 4020 | 94.1 | 1520 |
| IST-MEL1 | 171 | 385 | 716 | 207 | 385 |
| WM3619 | 90.6 | 1770 | 8640 | 198 | - |
| UACC-62 | 72.1 | 309 | 250 | 352 | 301 |
| MZ2-MEL | - | 27600 | 15800 | 103 | 29900 |
| WM451Lu | 53.1 | 161 | 2290 | 302 | 453 |
| C32 | 96.4 | 837 | 1200 | 107 | 408 |
| WM1716 | 84.0 | 14200 | 18000 | 29.2 | 15000 |
| WM115 | 223 | 543 | 8760 | 929 | 1530 |
| A101D | 110 | 1490 | 437 | 156 | 374 |
| RVH-421 | 216 | 7550 | 131 | 350 | 1320 |
| A375 | 79.0 | 103 | 81.0 | 37.8 | 151 |
| COLO 792 | 177 | 181 | 778 | 197 | 399 |
| MEL-HO | 101 | 212 | 237 | 59.1 | 290 |
| LB2518-MEL | - | 2150 | 5460 | 286 | 6280 |
| G-361 | 102 | 7640 | 4160 | 138 | 26600 |
| IPC-298 | 281 | 2230 | 3140 | 229 | 3450 |

3 of the entries, repeated:

{"cell line": "WM3619", "ruxolitinib + sunitinib": 90.6, "bortezomib + sunitinib": 1770, "MK-2206 + bortezomib": 8640, "sunitinib + MK-2206": 198}
{"cell line": "WM3526", "ruxolitinib + sunitinib": 212, "bortezomib + sunitinib": 1420, "MK-2206 + bortezomib": 5270, "sunitinib + MK-2206": 462, "ruxolitinib + bortezomib": 1900}
{"cell line": "COLO 800", "ruxolitinib + sunitinib": 17.4, "bortezomib + sunitinib": 36.9, "MK-2206 + bortezomib": 68.7, "sunitinib + MK-2206": 80.2, "ruxolitinib + bortezomib": 75.3}